Results are given in words; binding and its absence hold for the method and conditions named. Some results given as binding are weak or reduced against the parent protein; the word gives no strength.

Test [1] addresses T1, Soluble mouse EPOR chimera protein (R&D Systems) (mouse) (UniProt P14753).
T1 sequence (looked up): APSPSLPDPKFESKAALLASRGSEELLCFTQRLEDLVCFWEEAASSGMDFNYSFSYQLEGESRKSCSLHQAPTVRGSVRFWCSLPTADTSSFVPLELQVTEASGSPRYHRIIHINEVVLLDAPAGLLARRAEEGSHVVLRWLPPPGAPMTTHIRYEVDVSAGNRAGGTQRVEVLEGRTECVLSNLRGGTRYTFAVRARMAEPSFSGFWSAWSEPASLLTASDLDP
Briefly: SPR (Reichert SR7500C), mouse EPOR chimera amine-coupled to the chip, peptide injected at three concentrations.

Test [2] deals with T1, Soluble mouse EPOR chimera protein (R&D Systems) (mouse). Briefly: SPR, EPOR chimera on chip. (SPR reads the build-up and loss of mass on a sensor chip optically.)

On to KKAVSGLKTLTHILRALGAQKEAI [ML4-1], for which the binding result in test [1] and in test [2] was “binds” throughout.

For the origin of these results see patent US20190375810A1.
